This test addresses AtURI fused to the GAL4 DNA binding domain (Arabidopsis thaliana). The experiment in a line: two-hybrid.

Results are given in words; binding and its absence hold for the method and conditions named. Binding calls can cover weak binding; strength is not graded here. Sequences can lack the tags named with a protein.

B1: PFD6 fused to the Gal4 activation domain (protein, UniProt Q2HIK4 1-129)
chain: MSSSTVRDLQRDLENKANDLGKIQKDIGKNHQLRKKYTIQLGENELVLKELDLLEEDANVYKLIGPVLVKQDLAEANANVRKRIEYISAELKRLDAILQDMEEKQNNKRETIMKLQQRLQTIQAGKAKA
For B1, the binding entry is “binds”.
